Experimental data as given in US7189760B2, “Physiological cooling compositions containing highly purified ethyl ester of N-[[5-methyl-2-(1-methylethyl) cyclohexyl] carbonyl]glycine” (Millennium Specialty Chemicals, priority 2004, dated 2007).

Assay: visual and organoleptic test of aqueous solution of the product
Format: in vivo
Conditions: for bitter and sour taste and aftertaste: 25 ppm aqueous solution
Text: Further, the aqueous solutions of products for organoleptic tests were obtained by dissolving appropriate amounts of the products in dipropylene glycol DPG and adding the solution in DPG to an appropriate amount of water.

| Compound | bitter and sour taste and aftertaste | other results |
| --- | --- | --- |
| CCOC(=O)CNC(=O)C1CC(C)CCC1C(C)C (stereo not shown) [compound 10, ethyl ester of N-[[5-methyl-2-(1-methylethyl)cyclohexyl]carbonyl]glycine] | – | odor (summary statement): almost odorless |
| CCOC(=O)CNC(=O)C1CC(C)CCC1C(C)C (stereo not shown) [Comparative Synthetic and Organoleptic Example 1] [ethyl ester of N-[[5-methyl-2-(1-methylethyl)cyclohexyl]carbonyl]glycine, reference compound] | very noticeable bitter and sour taste and aftertaste | – |
| CCOC(=O)CNC(=O)C1CC(C)CCC1C(C)C (stereo not shown) [Inventive Example 3, ethyl ester of N-[[5-methyl-2-(1-methylethyl)cyclohexyl]carbonyl]glycine] | – | bitter and sour taste and aftertaste (listed as Inventive Example 3 (B)): no bitter or sour taste or aftertaste |
| CCOC(=O)CNC(=O)C1CC(C)CCC1C(C)C (stereo not shown) [Comparative Synthetic and Organoleptic Example 2] [ethyl ester of N-[[5-methyl-2-(1-methylethyl)cyclohexyl]carbonyl]glycine, reference compound] | noticeable bitter and sour taste and aftertaste | – |
| CCOC(=O)CNC(=O)C1CC(C)CCC1C(C)C (stereo not shown) [Inventive Example 5, ethyl ester of N-[[5-methyl-2-(1-methylethyl)cyclohexyl]carbonyl]glycine] | very weak bitter aftertaste, much weaker than in the unpurified products of the prior art | – |
| CCOC(=O)CNC(=O)C1CC(C)CCC1C(C)C (stereo not shown) [Comparative Synthetic and Organoleptic Example 2 after the a] [ethyl ester of N-[[5-methyl-2-(1-methylethyl)cyclohexyl]carbonyl]glycine, reference compound] | noticeable bitter and sour taste and aftertaste | – |
| CCOC(=O)CNC(=O)C1CC(C)CCC1C(C)C (stereo not shown) [Inventive Example 3 (A), ethyl ester of N-[[5-methyl-2-(1-methylethyl)cyclohexyl]carbonyl]glycine] | weak bitter aftertaste | – |
| CCOC(=O)CNC(=O)C1CC(C)CCC1C(C)C (stereo not shown) [Inventive Example 1, ethyl ester of N-[[5-methyl-2-(1-methylethyl)cyclohexyl]carbonyl]glycine] | no bitter and sour taste or aftertaste | – |
| CCOC(=O)CNC(=O)C1CC(C)CCC1C(C)C (stereo not shown) [Inventive Example 2, ethyl ester of N-[[5-methyl-2-(1-methylethyl)cyclohexyl]carbonyl]glycine] | no bitter and sour taste or aftertaste | – |
| CCOC(=O)CNC(=O)C1CC(C)CCC1C(C)C (stereo not shown) [Inventive Example 4, ethyl ester of N-[[5-methyl-2-(1-methylethyl)cyclohexyl]carbonyl]glycine] | somewhat bitter taste and aftertaste, but weaker than in the unpurified products of the prior art | – |
